Tests used:
in vitro = details: human, brain homogenate, pH 7.4, fu,brain,ROI Mean
[1] = Regional brain tissue binding by equilibrium dialysis, rat brain homogenate

SMILES: CN1C(=O)CN=C(c2ccccc2)c2cc(Cl)ccc21 [Diazepam, diazepam]
- fraction unbound (in vitro): 0.058
- between region comparison of fu,brain,ROI ([1]; healthy Sprague-Dawley rats, FrCx, PrCx, BG, CRB, HIP, WB): higher fu,brain,ROI
- coefficient of variation in the inter-day assessment of fu,brain ([1]; identical whole rat brain homogenate, three experimental days): 10.3%

Reference: publication PMC6440985, “Heterogeneous drug tissue binding in brain regions of rats, Alzheimer’s patients and controls: impact on translational drug development” (Scientific Reports, 2019)
